No constants are given. Whether binding was seen depends on the method and setting. Some binding calls cover weakened binding; strength is not graded here.

Chains of the proteins cited; added tags and fusions are not shown. Residues count along the entry.
UniProt P17181, residues 28-436: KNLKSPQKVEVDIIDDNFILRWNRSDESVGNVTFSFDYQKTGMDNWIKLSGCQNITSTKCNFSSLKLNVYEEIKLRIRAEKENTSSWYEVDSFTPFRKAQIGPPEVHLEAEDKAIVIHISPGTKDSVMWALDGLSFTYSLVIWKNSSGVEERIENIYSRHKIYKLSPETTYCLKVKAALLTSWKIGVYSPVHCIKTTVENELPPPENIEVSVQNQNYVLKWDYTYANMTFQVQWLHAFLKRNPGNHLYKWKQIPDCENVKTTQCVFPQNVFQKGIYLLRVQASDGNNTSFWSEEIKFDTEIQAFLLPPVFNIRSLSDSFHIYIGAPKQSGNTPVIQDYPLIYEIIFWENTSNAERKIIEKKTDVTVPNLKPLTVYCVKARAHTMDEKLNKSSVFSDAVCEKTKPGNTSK

Experiment [1] has as its target interferon-alpha/beta receptor alpha chain (IFNAR1) (UniProt P17181). Nature of the experiment: intrinsic fluorescence quenching of IFNAR1 (3 µM) titrated with 0-30 µM peptide.
The target is the same in experiment [2]. Nature of the experiment: intrinsic fluorescence quenching of IFNAR1 titrated with peptide.

As for MLQNGRDVRKRGFSDTGLRKLGRVNLL (also called MSPEP27) [IFNβ analog peptide with SEQ ID No. 2], the binding result in experiment [1] and in experiment [2] was “binds” in each case.

The values above are taken from US20190092832A1 (published 2019).
